## Results of single-concentration screens

Source: ChEMBL document CHEMBL3988442, “University of Dundee, Small-Polar-MMV Screening Library” (2021).

Mtb glucose medium: 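Phenotypic screen: M. tuberculosis growth, glucose 7H9 medium, 3 days; the read-out is not stated. Compounds at 50 µM. Direction is inferred from retests: higher values go with more growth inhibition. Size under these conditions: about 69,000 compounds, about 760 of them at 50% or above in at least one test.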
Mtb cholesterol medium: 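Whole-cell growth test on Mycobacterium tuberculosis, read after 4 days in a medium based on cholesterol and the lipid DPPC; the read-out is not stated. Concentration: 50 µM. Higher reads as more growth inhibition (inferred: compounds with an IC50 in retests scored well above the rest). Of about 69,000 compounds tested this way, about 370 (0.54%) reached 50% or more in at least one test.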

Values are the deposited “Percent Effect”, in %.
The controls that fix the scale are not given in the record; negative values are as filed.
The compounds are a random part of those screened.
Two or more numbers in one place are separate tests of the same structure; such repeats can differ widely.

c1csc(-c2noc(CN3CCc4c(ncn4C4CC4)C3)n2)c1 gave Mtb glucose medium: 41.28% & 6.817%; Mtb cholesterol medium: 11.3%.
CN(Cc1nc(-c2ccccc2)no1)C(=O)CNS(C)(=O)=O gave Mtb glucose medium: 1.41%; Mtb cholesterol medium: -20.3%.
Cc1ccc(-n2nnc(C(=O)NS(C)(=O)=O)c2C2CC2)cc1 gave Mtb glucose medium: 21.9%; Mtb cholesterol medium: -4.625%.
COc1ccccc1C1CCN(c2ccc3cc[nH]c3n2)CC1 gave Mtb glucose medium: -5.582%; Mtb cholesterol medium: 18.14% & -10.74%.
CC1CN(C)CCN1C(=O)c1cnc2c(cnn2C2CCCC2)c1 (stereo not drawn) gave Mtb glucose medium: -11.82% & 2.374%; Mtb cholesterol medium: -2.185%.
CCc1ccc(CNCC2CCN(CCO)CC2)cc1 gave Mtb glucose medium: -14.49%; Mtb cholesterol medium: -1.033% & -14.38%.
O=C(NCc1ccccn1)c1cnc(C2CCCN2)cn1 (stereo not drawn) gave Mtb glucose medium: -18.89%; Mtb cholesterol medium: -4.846%.
O=C(Nc1nccs1)NC1CCN(Cc2ccccc2)CC1 gave Mtb glucose medium: -14.57%; Mtb cholesterol medium: 3.043%.
[H][C@]12CCC[C@@]1(COCC1CCOCC1)CN(C(=O)c1ccnnc1)C2 gave Mtb glucose medium: -2.208%; Mtb cholesterol medium: -12.75%.
OCC1(Cc2cccc(Cl)c2)CCCN(c2ncccn2)C1 (stereo not drawn) gave Mtb glucose medium: 13.24%; Mtb cholesterol medium: -8.008%.
O=C(CCc1c(F)cccc1F)N1CCCCC1Cn1cccn1 (stereo not drawn) gave Mtb glucose medium: 24.04%; Mtb cholesterol medium: 23.73%.
COCCN(Cc1cccnc1)c1nc(C)nc2oc(C)nc12 gave Mtb glucose medium: -10.01%; Mtb cholesterol medium: -18.93%.
COC(=O)Nc1nc2c(s1)CN(C(=O)NCc1cccs1)CC2 gave Mtb glucose medium: 8.388% & -21.68%; Mtb cholesterol medium: -9.346%.
Cn1ccnc1C(O)(CCNCc1ccco1)C(F)(F)F (stereo not drawn) gave Mtb glucose medium: 8.286% & -4.447%; Mtb cholesterol medium: 21.43%.
N#Cc1ccccc1N1CCCN(C(=O)CCc2ccsc2)CC1 gave Mtb glucose medium: 0.8892%; Mtb cholesterol medium: 0.1878%.
CCCc1nc(N2CCCCC2)c2c(n1)c(C)nn2CC gave Mtb glucose medium: 37.3% & 28.66%; Mtb cholesterol medium: 20.58%.
CC(C)=CCN1CCC2(CC1)CC(=O)N(Cc1cc(F)cc(F)c1)C2 gave Mtb glucose medium: 1.564%; Mtb cholesterol medium: -10.16%.
CCCn1nc2c(cc1=O)CN(Cc1ncc(C(C)(C)C)o1)CC2 gave Mtb glucose medium: -24.13%; Mtb cholesterol medium: 3.84%.
COc1ccc(CC(=O)N2CC[C@H](CO)[C@H](O)C2)c(OC)c1 gave Mtb glucose medium: -25.56%; Mtb cholesterol medium: -7.517%.
CSCC1CCCN1CCc1ccncc1 (stereo not drawn) gave Mtb glucose medium: -32.27%; Mtb cholesterol medium: 2.587% & -13.54%.
O=C(O)C(F)(F)F.O=C(c1ccccn1)N1CCn2cnc(COCC3CC3)c2C1 gave Mtb glucose medium: -1.475%; Mtb cholesterol medium: -8.168%.
CC(C)NC(=O)CC1COC2(CCN(Cc3ccsc3)CC2)C1.O=C(O)C(F)(F)F (stereo not drawn) gave Mtb glucose medium: -12.26%; Mtb cholesterol medium: -0.07796% & -9.377%.
CNS(=O)(=O)c1cccc(C(C)NCc2cccc(OC)c2)c1 (stereo not drawn) gave Mtb glucose medium: -4.334%; Mtb cholesterol medium: 13.59% & 3.391%.
O=C(O)C(F)(F)F.[H][C@@]12CCN(c3nncs3)[C@@]1([H])CCN2C(=O)N(C)C gave Mtb glucose medium: -7.446% & -1.968%; Mtb cholesterol medium: 7.322%.
Cc1nc(C)n(CC2CCCN(c3ncnc4ccccc34)C2)n1 (stereo not drawn) gave Mtb glucose medium: 23.86%; Mtb cholesterol medium: 20.42%.
Cn1cc(CN2CCC3(CC2)C(=O)Nc2ccccc23)cn1.O=C(O)C(F)(F)F gave Mtb glucose medium: 8.105% & -2.601%; Mtb cholesterol medium: 3.427%.
COc1cccc([C@@H]2CCN(Cc3[nH]nc(C)c3Cl)C[C@H]2O)c1 gave Mtb glucose medium: 13.62%; Mtb cholesterol medium: -7.795%.
COCc1ncn2c1CN(S(=O)(=O)c1cccs1)CCC2 gave Mtb glucose medium: -52.66% & -2.541%; Mtb cholesterol medium: -24.93%.
COc1ccc(C(=O)N2CCCC(NC(=O)C(C)C)C2)c(O)c1 (stereo not drawn) gave Mtb glucose medium: -15.93%; Mtb cholesterol medium: -14.33%.
O=C(O)C(F)(F)F.[H][C@@]12CN(C(=O)C3CCOC3)C[C@]1([H])C(=O)N(CCN(C)C)C2 (stereo partly drawn) gave Mtb glucose medium: 3.868% & -9.587%; Mtb cholesterol medium: -16.8%.
COc1nn(C)cc1C(=O)NCC(OC)c1ccccc1C (stereo not drawn) gave Mtb glucose medium: -20.2%; Mtb cholesterol medium: 11.97%.
Cc1occc1C(=O)N1CCC2(CCN(Cc3ccccn3)C2=O)C1.O=C(O)C(F)(F)F (stereo not drawn) gave Mtb glucose medium: -11.04%; Mtb cholesterol medium: 21.53%.
CN1CCOC(CN(C(=O)CCCn2cccn2)c2nccs2)C1 (stereo not drawn) gave Mtb glucose medium: -0.6192% & 15.75%; Mtb cholesterol medium: -5.139%.
CCc1noc(C(C)N2CCCN(Cc3noc(C4CC4)n3)CC2)n1 (stereo not drawn) gave Mtb glucose medium: 1.867% & -7.793%; Mtb cholesterol medium: -7.084%.
CN1CCCC1CNC(=O)CCCOc1ccc(F)cc1 (stereo not drawn) gave Mtb glucose medium: -1.839%; Mtb cholesterol medium: 10.39%.
Cc1nnc(NCC(c2ccco2)N(C)C)c(C#N)c1C (stereo not drawn) gave Mtb glucose medium: -9.356%; Mtb cholesterol medium: -12.81%.
CS(=O)(=O)Nc1ccn(Cc2ccc(Cl)cc2)n1 gave Mtb glucose medium: -22.22%; Mtb cholesterol medium: 18.2%.
O=C(O)C(F)(F)F.O=C(O)C(F)(F)F.[H][C@@]12CO[C@@H](CN(C)C)[C@]1([H])CCN(Cc1ccc(C)o1)C2 gave Mtb glucose medium: -20.7%; Mtb cholesterol medium: -10.69%.
CC[C@@H]1N(Cc2ccoc2)CCC[C@]12CCC(=O)N2CCOC.O=C(O)C(F)(F)F gave Mtb glucose medium: 10.33%; Mtb cholesterol medium: -1.948%.
CN(C)C(=O)c1nc(CN2C(=O)OC[C@@H]2c2ccccc2)no1 gave Mtb glucose medium: -17.17% & 6.834%; Mtb cholesterol medium: -13.33%.
Cc1ccc(C(=O)NCCn2nc(-n3cncn3)ccc2=O)c(C)c1 gave Mtb glucose medium: -7.05%; Mtb cholesterol medium: 1.85%.
CC(=O)NC(C)(C)c1noc(C2(C#N)CCCCC2)n1 gave Mtb glucose medium: 4.435% & -6.246%; Mtb cholesterol medium: 8.721%.
CN1CCOC(CNCCc2ccccn2)C1 (stereo not drawn) gave Mtb glucose medium: -9.461%; Mtb cholesterol medium: -8.364%.
O=C1CCCN1CC1CCCCN1C(=O)Nc1cccc(F)c1 (stereo not drawn) gave Mtb glucose medium: 3.279%; Mtb cholesterol medium: -13.37%.
O=C(CCCOc1ccccc1F)NCCCC(=O)Nc1cn[nH]c1 gave Mtb glucose medium: -15.26%; Mtb cholesterol medium: -21.56% & -8.19%.
Cn1cnc2c1CCN(Cc1nc(COc3ccc(F)cc3)no1)C2 gave Mtb glucose medium: -15.42%; Mtb cholesterol medium: -25.5%.

For reference, 5 entries once more:

SMILES,Mtb glucose medium,Mtb cholesterol medium
Cc1nnc(NCC(c2ccco2)N(C)C)c(C#N)c1C (stereo not drawn),-9.356%,-12.81%
CC(=O)NC(C)(C)c1noc(C2(C#N)CCCCC2)n1,4.435% & -6.246%,8.721%
COc1cccc([C@@H]2CCN(Cc3[nH]nc(C)c3Cl)C[C@H]2O)c1,13.62%,-7.795%
CCCn1nc2c(cc1=O)CN(Cc1ncc(C(C)(C)C)o1)CC2,-24.13%,3.84%
CCCc1nc(N2CCCCC2)c2c(n1)c(C)nn2CC,37.3% & 28.66%,20.58%